Paper doi:10.1101/2025.10.21.683757

How the values were obtained:
[1] = biological target: T1, JAKMIP1 N-terminus-mCherry fusion protein (expressed in SH-SY5Y cells) (UniProt Q96N16); experiment: co-IP
T1 sequence: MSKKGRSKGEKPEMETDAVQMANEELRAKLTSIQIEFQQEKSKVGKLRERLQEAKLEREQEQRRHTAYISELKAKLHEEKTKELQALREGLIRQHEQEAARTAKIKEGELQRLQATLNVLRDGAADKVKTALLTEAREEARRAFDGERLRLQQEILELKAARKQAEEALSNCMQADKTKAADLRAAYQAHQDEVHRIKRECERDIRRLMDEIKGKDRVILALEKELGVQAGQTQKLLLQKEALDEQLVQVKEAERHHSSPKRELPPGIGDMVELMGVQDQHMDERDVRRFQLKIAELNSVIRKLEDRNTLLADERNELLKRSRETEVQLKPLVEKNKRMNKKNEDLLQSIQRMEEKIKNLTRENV

[2] = biological target: T2, JAKMIP1 C-terminus-mCherry fusion protein (expressed in SH-SY5Y cells) (UniProt Q96N16); experiment: co-IP
T2 sequence: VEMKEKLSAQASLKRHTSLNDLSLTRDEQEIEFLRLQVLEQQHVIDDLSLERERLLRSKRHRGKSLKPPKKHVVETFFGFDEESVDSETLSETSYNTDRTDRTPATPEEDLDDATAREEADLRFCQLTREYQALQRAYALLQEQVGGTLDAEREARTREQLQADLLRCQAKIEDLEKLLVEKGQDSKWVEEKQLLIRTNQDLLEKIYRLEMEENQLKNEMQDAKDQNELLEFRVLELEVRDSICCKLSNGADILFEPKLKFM

binding [1]: binds
binding [2]: binds
Substance: β-Tubulin (human (endogenous in SH-SY5Y))

No constants are given. Whether binding was seen depends on the method and setting. Binding seen in cells or lysates may run through a third protein. Binding can be weak; no strength is given. Where a sequence is shown, tags or fusion partners need not be part of it.
